Assay results: PMC5963591, “Bitopic Binding Mode of an M1 Muscarinic Acetylcholine Receptor Agonist Associated with Adverse Clinical Trial Outcomes” (Molecular Pharmacology, 2018)

Target: T1, human M1 mAChR (Homo sapiens, UniProt P11229)
T1 sequence (P11229 1-460): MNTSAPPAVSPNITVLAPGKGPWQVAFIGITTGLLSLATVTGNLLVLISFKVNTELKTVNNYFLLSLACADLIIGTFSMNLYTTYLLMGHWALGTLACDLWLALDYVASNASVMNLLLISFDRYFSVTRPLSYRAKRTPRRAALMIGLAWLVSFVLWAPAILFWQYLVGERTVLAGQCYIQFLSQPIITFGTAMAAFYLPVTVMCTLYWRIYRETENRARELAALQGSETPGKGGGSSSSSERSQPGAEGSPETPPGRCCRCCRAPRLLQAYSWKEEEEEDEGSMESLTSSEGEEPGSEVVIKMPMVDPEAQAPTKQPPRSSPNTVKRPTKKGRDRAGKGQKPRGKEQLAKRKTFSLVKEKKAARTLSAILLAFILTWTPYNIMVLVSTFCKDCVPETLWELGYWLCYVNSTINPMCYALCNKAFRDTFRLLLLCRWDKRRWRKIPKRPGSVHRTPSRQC
Test: [3H]-NMS binding interaction studies with BQCA
Design: expressed in transfected cells; host or cells: CHO Flp-In
Settings: BQCA potentiation of ACh-mediated displacement of [^3H]-NMS
Description: Prior to the experiment, cells were washed with 100 μl phosphate-buffered saline. […] Binding was terminated by rapid aspiration followed by two washes with 200 μl ice-cold 0.9% NaCl. Bound radioactivity was determined by liquid scintillation (Ultima Gold; PerkinElmer, Boston, MA) counting. Nonspecific binding was determined in the presence of 10 μM atropine.

COc1ccc(Cn2cc(C(=O)O)c(=O)c3ccccc32)cc1 [BQCA, benzyl quinolone carboxylic acid, reference compound]
positive cooperativity for ACh binding: approximately 35 fold
